In PubChem BioAssay AID1487 (National Center for Advancing Translational Sciences (NCATS), 2009):
Values joined by “and” are separate entries in the source; they are usually repeats but may differ in a detail not shown here. Equal entries are not always repeated. Some of the results follow. The main result of the screen is listed elsewhere. These columns were measured beside it and carry no call. The list favours compounds with an active or inconclusive main result. Words in brackets tell the shape of the fitted curve; partial curves, single points and poor fits give uncertain potencies.

Assay: qHTS Assay for Modulators of Lamin A Splicing
Details: HeLa LMNA splicing GFP/RFP minigene ratio, 48 h
Method in brief: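 S3 HeLa cells stably expressing lamin A-EGFP splicing minigene plus DsRed2, 600 cells/well, 48 h compound exposure at 37C. Laser-scanning cytometry; analysed as GFP (500-530 nm)/RFP (575-640 nm) total intensity ratio; 0.5% DMSO vehicle.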

[1] = measured here: GFP splicing reporter channel
[2] = measured here: RFP viability control channel

Compound | AC50 [1] | AC50 [2]
OCCN1CCN(CCCN2c3ccccc3Sc3ccc(Cl)cc32)CC1 | 12.6 µM [falling, single point] and 17.8 µM [falling, partial curve] and 25.1 µM [falling, single point] | 3.16 µM [rising, single point] and 11.2 µM [falling, partial curve, poor fit] and 20 µM [falling, partial curve, poor fit]
O=[N+]([O-])c1cccc(-c2c[n+]3c(n2-c2ccccc2)SCC3)c1 | 6.31 µM [falling, single point] | 
CCCn1c(=O)c(C(=O)N/N=C/c2ccccc2F)c(O)c2ccccc21 | 5.62 µM [falling, partial curve] | 6.31 µM [falling, partial curve, poor fit]
Cc1nc2ccccc2c2oc(C(=O)N3CCc4ccccc4C3)cc12 |  | 22.4 µM [rising, single point]
Cc1[nH]n(C(N)=S)c(=O)c1N=Nc1ccc2ccccc2c1 |  | 5.01 µM [falling, partial curve, poor fit]
O=C1C2C3c4ccccc4C(c4ccccc43)C2C(=O)N1CN1CCOCC1 (configuration not stated) |  | 5.62 µM [rising, single point]
C/C=C/c1ccc(OCCOCCOc2cccc3cccnc23)c(OC)c1 |  | 5.62 µM [rising, full curve, poor fit]
CCC(C)(C)n1nnnc1C(c1ccccc1)N1CCN(Cc2ccccc2)CC1 (configuration not stated) |  | 10 µM [falling, partial curve]
CCOC(=O)c1sc(NC(=O)Nc2cccc(Cl)c2)cc1C |  | 14.1 µM [rising, partial curve, poor fit]
CCCn1c2ccccc2c2cnn(CC(=O)Nc3ccccc3OC)c(=O)c21 | 4.47 µM [rising, single point] | 5.62 µM [rising, single point]
O=c1c2[nH]c3ccccc3c2nc(SCc2ccccc2F)n1-c1ccc(F)cc1 | 35.5 µM [falling, single point] | 20 µM [falling, partial curve]
Cc1nn(-c2ccccc2)c2c1N(CCCC(=O)NCc1ccc(OC(C)C)cc1)C(=O)CS2 |  | 1 µM [rising, full curve]
COc1ccc(NC(=O)c2cc(S(=O)(=O)N(C)C)ccc2N2CCCC2)cc1Cl |  | 6.31 µM [rising, partial curve]
O=C(O)c1ccc(N2C(=O)/C(=C/C=C/c3ccccc3)SC2=S)cc1 |  | 0.01 µM [rising, full curve, poor fit]
Cc1[nH]n(-c2cccc(Cl)c2)c(=O)c1/C=N/n1c(C)nc2ccccc2c1=O |  | 12.6 µM [rising, partial curve, poor fit]
c1ccc2[nH]c(CN3CCN(c4ncnc5c4oc4ccccc45)CC3)nc2c1 | 11.2 µM [rising, partial curve, poor fit] | 22.4 µM [rising, single point]
CCC(=NCCc1c(C)[nH]c2ccccc12)C1=C(O)CC(c2ccccc2)CC1=O (configuration not stated) |  | 31.6 µM [falling, single point]
CCNC(=S)N1CCN(c2cccc(C(F)(F)F)c2)CC1 |  | 20 µM [rising, single point]
O=C(C1CCCCC1)N1CCCC(c2nc(-c3ccc(F)cc3)no2)C1 (configuration not stated) | 14.1 µM [rising, single point] | 

Compound | AC50 [1] | AC50 [2]
O=S(=O)(c1ccc(N2CCN(Cc3ccc4c(c3)OCO4)CC2)nc1)N1CCOCC1 |  | 2 µM [rising, full curve, poor fit]
CCn1c(=O)cc(SCC(=O)N2CCN(c3ccccn3)CC2)c2ccccc21 |  | 35.5 µM [rising, single point]
CCOc1ccc(CNc2cccc(SC)c2)cc1 |  | 11.2 µM [falling, partial curve]
COc1ccc(NC(=O)CSc2nc3ccccc3n2CC(=O)NCc2ccc(F)cc2)cc1 |  | 0.501 µM [rising, partial curve]
Cc1ccc2c(Cl)cc(Cl)c(OCC(=O)Nc3cc(S(=O)(=O)N(C)C)ccc3C)c2n1 |  | 35.5 µM [rising, partial curve]
CC(=O)c1cccc(NC(=S)NC(=O)c2ccc(Br)cc2)c1 | 35.5 µM [rising, single point] | 35.5 µM [rising, single point]
Nc1ccc(S(=O)(=O)c2ccc(N)cc2)cc1 | 1.26 µM [falling, single point] | 1.41 µM [falling, single point] and 7.08 µM [falling, full curve, poor fit]
O=S(=O)(c1ccc(OCC(O)CN2CCN(c3ccccc3O)CC2)cc1)N1CCOCC1 (configuration not stated) |  | 35.5 µM [rising, single point]
O=C1OC(c2ccccc2)c2ccc3ccccc3c21 (configuration not stated) | 31.6 µM [rising, single point] | 31.6 µM [rising, single point]
O=Cc1ccc(-c2ccc(F)cc2)o1 |  | 0.00355 µM [falling, full curve]
N#C/C(=C\c1ccccc1)C(=O)N(c1ccccn1)C1CCCCC1 | 12.6 µM [rising, single point] | 15.8 µM [rising, single point]
C1=C(CCNc2nnnn2-c2ccccc2)CCCC1 | 35.5 µM [rising, single point] | 31.6 µM [rising, single point]
CCC(C)C(=O)Nc1nc(C)c(-c2csc(Nc3ccccc3OC)n2)s1 (configuration not stated) |  | 31.6 µM [rising, single point]
CCSC1=NC2(CCN(C(=O)NC3CCCCC3)CC2)N=C1c1ccc(C)cc1 |  | 0.0224 µM [falling, full curve]
Cc1cc(/C=C(\C#N)C(=O)NCc2cccs2)c(C)n1-c1ccccc1F | 35.5 µM [rising, single point] | 
CN=c1sc2ccccc2n1CC(O)c1ccccc1 (configuration not stated) | 22.4 µM [falling, partial curve] | 12.6 µM [falling, partial curve]
O=C(Nc1nc(-c2ccc(Cl)cc2Cl)cs1)C1CCCO1 (configuration not stated) |  | 22.4 µM [rising, single point]
Cc1cccc(NC(=O)CSc2nnc(-c3ccccc3C)o2)c1 |  | 15.8 µM [rising, partial curve, poor fit]
CCC(C)Sc1cc(C)c(C#N)c2nc3ccccc3n12 (configuration not stated) |  | 1.26 µM [rising, full curve]

Compound | AC50 [1] | AC50 [2]
Cc1[nH]n(-c2ccc(Cl)cc2)c(=O)c1C=Nc1ccc(S(=O)(=O)N2CCOCC2)cc1 |  | 14.1 µM [rising, single point]
CCCCOc1ccc(C(=O)NCC2(c3ccccc3)CCOCC2)cc1 | 20 µM [rising, single point] | 
Cc1nn(Cc2ccccc2)c2sc(C(=O)NCc3cccnc3)cc12 | 2.82 µM [rising, partial curve] | 12.6 µM [rising, partial curve]
CCOC(=O)c1c(NC(=O)CN2CCN(C(=O)c3ccco3)CC2)sc2c1CCCC2 |  | 12.6 µM [rising, single point]
Nc1ccccc1C(=O)N/N=C1\C2CN3CCN(C2)CC1(c1ccccc1)C3 |  | 0.0158 µM [falling, full curve, poor fit]
Cn1c(=O)c2ncn(CC(=O)Nc3cc(C(F)(F)F)ccc3N3CCOCC3)c2n(C)c1=O |  | 0.0251 µM [falling, full curve, poor fit]
N#C/C(=C\c1ccccc1)C(=O)Nc1nncs1 |  | 0.02 µM [rising, full curve, poor fit]
S=C(NC1CCCCC1)N1CCN(C/C=C/c2ccccc2)CC1 | 15.8 µM [rising, partial curve, poor fit] | 28.2 µM [rising, partial curve]
CCn1c2ccccc2c2nnc(SCC(=O)Nc3c(C)n(C)n(-c4ccccc4)c3=O)nc21 |  | 31.6 µM [rising, single point]
CNc1nc(N)c(C(=O)C23CC4CC(CC(C4)C2)C3)s1 | 1.12 µM [falling, partial curve] | 1.41 µM [falling, partial curve]
NC(=S)N/N=C1/CCSc2ccc3ccccc3c21 |  | 14.1 µM [falling, single point]
O=C(O)c1ccccc1SCC(=O)N1CCOCC1 | 0.355 µM [rising, full curve, poor fit] | 
COc1ccc(/C(C)=N/OCC(=O)Nc2nc3ccccc3s2)cc1 | 11.2 µM [rising, single point] | 14.1 µM [rising, single point]
Cc1csc2nc(COC(=O)c3ccccc3NC(=O)c3ccccc3Cl)cc(=O)n12 | 0.355 µM [rising, full curve] | 0.224 µM [rising, partial curve, poor fit]
CCOC(=O)c1[nH]c(C)c(CCC(=O)Nc2cc(Cl)ccc2C)c1C | 0.251 µM [rising, full curve, poor fit] | 
Cc1csc(NC(=O)c2nc(-c3ccccc3)n(-c3ccccc3)n2)n1 |  | 11.2 µM [rising, single point]
COc1ccc(C(=O)NCC(c2cccnc2)N2CCc3ccccc3C2)cc1 (configuration not stated) |  | 0.00316 µM [falling, full curve, poor fit]
COc1cc(OC)cc(C(=O)Nn2c(C)nc3ccccc3c2=O)c1 |  | 17.8 µM [rising, single point]

Look-ups from the results shown.
Entry of Cc1csc(NC(=O)c2nc(-c3ccccc3)n(-c3ccccc3)n2)n1 under AC50 [2]: 11.2 µM [rising, single point]
Entry of Nc1ccccc1C(=O)N/N=C1\C2CN3CCN(C2)CC1(c1ccccc1)C3 under AC50 [2]: 0.0158 µM [falling, full curve, poor fit]
Entry of O=C(O)c1ccccc1SCC(=O)N1CCOCC1 under AC50 [1]: 0.355 µM [rising, full curve, poor fit]
